ChEMBL document CHEMBL2062363, “Ligand-based design, in silico ADME-Tox filtering, synthesis and biological evaluation to discover new soluble 1,4-DHP-based CFTR activators” (Eur J Med Chem, 2012)

Conditions: buffer, 0.5 h, pH 7.4

## COC(=O)C1=C(C)NC(C)=C(C(=O)OC)C1c1ccccc1[N+](=O)[O-] [NIFEDIPINE]
  log(solubility): -4.18
